# Results deposited as PubChem BioAssay AID504804 (Drosophila RNAi Screening Center, 2011).
# Assay: 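Knock-downs shielding fly cells from apoptosis caused by DNA damage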 (primary screen)
# System: Drosophila Kc cells
# Reagents: long dsRNA against Drosophila genes, 0.5 µg dsRNA per well
# Time to read-out: 96 h (48 h knock-down, then 48 h drug)
# Conditions: doxorubicin 5 µg/ml for 48 h, added 48 h after dsRNA
# Measured: 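Luminescent ATP counts per replicate, not normalised, reflecting viable cells after 48 h dsRNA knock-down followed by 48 h of 5 µg/ml doxorubicin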
# Reading the numbers: raw ATP luminescence: higher = more viable cells, protection from doxorubicin
# Hit rule: 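Active when both duplicate wells lie at least 2 SD above the plate mean and protection is confirmed by rescreening and independent dsRNAs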
# The screen tested about 19,000 reagents; shown is an unselected part of those that have a named target and a result. Of all reagents, 47 (0.25%) were called active. 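Signals are raw, not normalised; exact z-scores behind calls not deposited; actives needed confirmation, so some wells reaching 2 SD are inactive.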 Names joined by + are all predicted targets of the reagent.
gene,DRSC id,SD above plate mean,"raw ATP luminescence, replicate 1","raw ATP luminescence, replicate 2",Outcome
NKCC,DRSC12140,,59803,18060,inactive
NKCC,DRSC12311,,64610,66630,inactive
CG8004,DRSC10947,,21390,14737,inactive
CheA46a,DRSC05184,,64257,69010,inactive
Tbcb,DRSC06067,,57877,60397,inactive
CG13581,DRSC04216,,51200,46767,inactive
CG17786,DRSC15270,,63330,69500,inactive
ana,DRSC07579,,52437,46410,inactive
AGBE,DRSC06861,,77207,67973,inactive
del,DRSC03170,,75220,69073,inactive
Zfrp8,DRSC04352,,44363,46720,inactive
M6,DRSC11869,,64877,66590,inactive
Mtp,DRSC03216,,67580,64047,inactive
IleRS,DRSC11667,,27913,26627,inactive
Gapdh1,DRSC07433,,40380,89390,inactive
Sec63,DRSC11002,,74087,82993,inactive
CG7365,DRSC10824,,19920,16710,inactive
rept,DRSC11388,,64263,60760,inactive
CG1943,DRSC12576,,60633,55977,inactive
Vha14-2,DRSC12145,,68090,74927,inactive
CG5828,DRSC02900,,35847,54647,inactive
CG10859,DRSC02110,,89210,69047,inactive
CG4744,DRSC06887,,64557,76110,inactive
CG40245 (retired record),DRSC21012,,1.98e5,2.21e5,inactive
Tango6,DRSC02671,,98300,79553,inactive
Smox,DRSC18716,,43370,47370,inactive
CG9360,DRSC20180,,3.23e5,2.78e5,inactive
CG14086,DRSC10090,,74387,70293,inactive
CG2127,DRSC06821,,61273,82487,inactive
RNaseZ,DRSC06845,,67397,84393,inactive
CG13675,DRSC08908,,89950,1.15e5,inactive
CG13675,DRSC10034,,32423,36063,inactive
Muc30E,DRSC01101,,2.89e5,2.83e5,inactive
CG17672,DRSC09230,,25953,23343,inactive
CG17672,DRSC10278,,41833,35633,inactive
Noc2,DRSC03165,,72677,64193,inactive
ssp3,DRSC02669,,49770,48317,inactive
ssp3,DRSC02670,,58010,58250,inactive
CG4984 + CG4975,DRSC06908,,58363,57347,inactive
Klf15,DRSC17742,,39230,40100,inactive
Svip,DRSC08982,,1.52e5,1.59e5,inactive
CG31612,DRSC03697,,50280,49680,inactive
CG31612,DRSC03698,,45950,51623,inactive
CG14000,DRSC02332,,29197,30287,inactive
CG42843 (retired record),DRSC01118,,3.29e5,3.19e5,inactive
CG42843 (retired record),DRSC02231,,49920,73390,inactive
CG42843 (retired record),DRSC02233,,46967,69623,inactive
Pcf11,DRSC05983,,34277,36427,inactive
CG8925,DRSC16455,,92220,70480,inactive
CG8925,DRSC16456,,63680,71960,inactive
CG8925,DRSC16457,,82770,80020,inactive
CG9121,DRSC03142,,29110,35997,inactive
CG17321,DRSC02598,,54340,47360,inactive
Rcd6,DRSC06054,,55897,57597,inactive
CG34345,DRSC02126,,24663,32077,inactive
Mal-A3,DRSC07462,,39790,62677,inactive
gwl,DRSC16305,,60347,56940,inactive
CtsK1,DRSC08742,,56533,53933,inactive
CG14511,DRSC14863,,28350,28460,inactive
CG8813,DRSC00706,,1.23e5,85147,inactive
slbo,DRSC04716,,44717,81293,inactive
CG14605,DRSC12549,,61863,62963,inactive
CG13280,DRSC02253,,77627,69573,inactive
Ag5r2,DRSC19328,,4.28e5,3.38e5,inactive
sick,DRSC02090,,54793,56057,inactive
sick,DRSC02301,,58210,37737,inactive
sick,DRSC02302,,34293,38713,inactive
sick,DRSC02303,,31503,29077,inactive
sick,DRSC02306,,66023,45893,inactive
CG15536,DRSC15072,,41080,42840,inactive
plx,DRSC12260,,80600,62890,inactive
plx,DRSC12385,,65700,61050,inactive
CG33467,DRSC05525,,1.01e5,98093,inactive
alpha-Est1,DRSC12612,,36570,44877,inactive
Mettl14,DRSC03073,,1.04e5,71043,inactive
CG9449,DRSC11073,,67583,73487,inactive
Actn3,DRSC14106,,76960,84220,inactive
ppk13,DRSC02382,,50767,52457,inactive
Jra,DRSC07447,at least 3 SD above plate mean,1.17e5,1.00e5,active
Madm,DRSC12129,,64153,69023,inactive
CG42346,DRSC20622,,3.06e5,2.86e5,inactive
CG42346,DRSC20644,,2.46e5,2.74e5,inactive
Sod2,DRSC07554,,68467,61873,inactive
Osi13,DRSC12281,,84960,53283,inactive
CG42597,DRSC03681,,70067,85187,inactive
CG17264,DRSC00500,,97017,61650,inactive
CG14142,DRSC10145,,86293,90170,inactive
side-V,DRSC04188,,56677,76860,inactive
side-V,DRSC04189,,1.87e5,2.02e5,inactive
CG14756,DRSC06491,,54507,77237,inactive
RpS21,DRSC00833,,76637,1.15e5,inactive
nkt,DRSC10144,,75670,77557,inactive
CG31802,DRSC02459,,48393,60993,inactive
CG4793,DRSC01966,,70293,75883,inactive
CG11723,DRSC00324,,98613,82900,inactive
CG13309,DRSC09980,,70740,70727,inactive
CG15043,DRSC19619,,2.61e5,2.60e5,inactive
CG14567,DRSC11728,,74180,77443,inactive
rdgA,DRSC17863,,43890,38260,inactive
rdgA,DRSC18036,,46590,41110,inactive
PMCA,DRSC17113,,2.51e5,2.26e5,inactive
PMCA,DRSC17114,,2.69e5,2.58e5,inactive
CG5783,DRSC02894,,63590,64800,inactive
Elp3,DRSC00448,,26263,26600,inactive
Nepl14,DRSC15631,,87290,56800,inactive
pippin,DRSC04489,,61027,80107,inactive
CG15549,DRSC15087,,62450,40910,inactive
